B1: septin 8 (SEPT8), endogenous (protein, UniProt Q92599 1-483)
chain: MAATDLERFSNAEPEPRSLSLGGHVGFDSLPDQLVSKSVTQGFSFNILCVGETGIGKSTLMNTLFNTTFETEEASHHEACVRLRPQTYDLQESNVQLKLTIVDAVGFGDQINKDESYRPIVDYIDAQFENYLQEELKIRRSLFDYHDTRIHVCLYFITPTGHSLKSLDLVTMKKLDSKVNIIPIIAKADTISKSELHKFKIKIMGELVSNGVQIYQFPTDDEAVAEINAVMNAHLPFAVVGSTEEVKVGNKLVRARQYPWGVVQVENENHCDFVKLREMLIRVNMEDLREQTHSRHYELYRRCKLEEMGFQDSDGDSQPFSLQETYEAKRKEFLSELQRKEEEMRQMFVNKVKETELELKEKERELHEKFEHLKRVHQEEKRKVEEKRRELEEETNAFNRRKAAVEALQSQALHATSQQPLRKDKDKKNRSDIGAHQPGMSLSSSKVMMTKASVEPLNCSSWWPAIQCCSCLVRDATWREGFL
B2: septin 2 (SEPT2), endogenous (protein, UniProt Q15019 1-361)
chain: MSKQQPTQFINPETPGYVGFANLPNQVHRKSVKKGFEFTLMVVGESGLGKSTLINSLFLTDLYPERVIPGAAEKIERTVQIEASTVEIEERGVKLRLTVVDTPGYGDAINCRDCFKTIISYIDEQFERYLHDESGLNRRHIIDNRVHCCFYFISPFGHGLKPLDVAFMKAIHNKVNIVPVIAKADTLTLKERERLKKRILDEIEEHNIKIYHLPDAESDEDEDFKEQTRLLKASIPFSVVGSNQLIEAKGKKVRGRLYPWGVVEVENPEHNDFLKLRTMLITHMQDLQEVTQDLHYENFRSERLKRGGRKVENEDMNKDQILLEKEAELRRMQEMIARMQAQMQMQMQGGDGDGGALGHHV
B3: septin 7 (SEPT7), endogenous (protein, UniProt Q16181 1-437)
chain: MSVSARSAAAEERSVNSSTMVAQQKNLEGYVGFANLPNQVYRKSVKRGFEFTLMVVGESGLGKSTLINSLFLTDLYSPEYPGPSHRIKKTVQVEQSKVLIKEGGVQLLLTIVDTPGFGDAVDNSNCWQPVIDYIDSKFEDYLNAESRVNRRQMPDNRVQCCLYFIAPSGHGLKPLDIEFMKRLHEKVNIIPLIAKADTLTPEECQQFKKQIMKEIQEHKIKIYEFPETDDEEENKLVKKIKDRLPLAVVGSNTIIEVNGKRVRGRQYPWGVAEVENGEHCDFTILRNMLIRTHMQDLKDVTNNVHYENYRSRKLAAVTYNGVDNNKNKGQLTKSPLAQMEEERREHVAKMKKMEMEMEQVFEMKVKEKVQKLKDSEAELQRRHEQMKKNLEAQHKELEEKRRQFEDEKANWEAQQRILEQQNSSRTLEKNKKKGKIF
B4: septin 11 (SEPT11), endogenous (protein, UniProt Q9NVA2 1-429)
chain: MAVAVGRPSNEELRNLSLSGHVGFDSLPDQLVNKSTSQGFCFNILCVGETGIGKSTLMDTLFNTKFESDPATHNEPGVRLKARSYELQESNVRLKLTIVDTVGFGDQINKDDSYKPIVEYIDAQFEAYLQEELKIKRSLFNYHDTRIHACLYFIAPTGHSLKSLDLVTMKKLDSKVNIIPIIAKADTIAKNELHKFKSKIMSELVSNGVQIYQFPTDEETVAEINATMSVHLPFAVVGSTEEVKIGNKMAKARQYPWGVVQVENENHCDFVKLREMLIRVNMEDLREQTHTRHYELYRRCKLEEMGFKDTDPDSKPFSLQETYEAKRNEFLGELQKKEEEMRQMFVMRVKEKEAELKEAEKELHEKFDLLKRTHQEEKKKVEDKKKELEEEVNNFQKKKAAAQLLQSQAQQSGAQQTKKDKDKKNASFT
B5: septin 6 (SEPT6), endogenous (protein, UniProt Q14141 1-434)
chain: MAATDIARQVGEGCRTVPLAGHVGFDSLPDQLVNKSVSQGFCFNILCVGETGLGKSTLMDTLFNTKFEGEPATHTQPGVQLQSNTYDLQESNVRLKLTIVSTVGFGDQINKEDSYKPIVEFIDAQFEAYLQEELKIRRVLHTYHDSRIHVCLYFIAPTGHSLKSLDLVTMKKLDSKVNIIPIIAKADAISKSELTKFKIKITSELVSNGVQIYQFPTDDESVAEINGTMNAHLPFAVIGSTEELKIGNKMMRARQYPWGTVQVENEAHCDFVKLREMLIRVNMEDLREQTHTRHYELYRRCKLEEMGFKDTDPDSKPFSLQETYEAKRNEFLGELQKKEEEMRQMFVQRVKEKEAELKEAEKELHEKFDRLKKLHQDEKKKLEDKKKSLDDEVNAFKQRKTAAELLQSQGSQAGGSQTLKRDKEKKNNPWLCTE
B6: septin 10 (SEPT10), endogenous (protein, UniProt Q9P0V9 1-454)
chain: MASSEVARHLLFQSHMATKTTCMSSQGSDDEQIKRENIRSLTMSGHVGFESLPDQLVNRSIQQGFCFNILCVGETGIGKSTLIDTLFNTNFEDYESSHFCPNVKLKAQTYELQESNVQLKLTIVNTVGFGDQINKEESYQPIVDYIDAQFEAYLQEELKIKRSLFTYHDSRIHVCLYFISPTGHSLKTLDLLTMKNLDSKVNIIPVIAKADTVSKTELQKFKIKLMSELVSNGVQIYQFPTDDDTIAKVNAAMNGQLPFAVVGSMDEVKVGNKMVKARQYPWGVVQVENENHCDFVKLREMLICTNMEDLREQTHTRHYELYRRCKLEEMGFTDVGPENKPVSVQETYEAKRHEFHGERQRKEEEMKQMFVQRVKEKEAILKEAERELQAKFEHLKRLHQEERMKLEEKRRLLEEEIIAFSKKKATSEIFHSQSFLATGSNLRKDKDRKNSNFL

The chains behind the UniProt entries cited, without tags or fusion partners.
UniProt Q9NZJ4: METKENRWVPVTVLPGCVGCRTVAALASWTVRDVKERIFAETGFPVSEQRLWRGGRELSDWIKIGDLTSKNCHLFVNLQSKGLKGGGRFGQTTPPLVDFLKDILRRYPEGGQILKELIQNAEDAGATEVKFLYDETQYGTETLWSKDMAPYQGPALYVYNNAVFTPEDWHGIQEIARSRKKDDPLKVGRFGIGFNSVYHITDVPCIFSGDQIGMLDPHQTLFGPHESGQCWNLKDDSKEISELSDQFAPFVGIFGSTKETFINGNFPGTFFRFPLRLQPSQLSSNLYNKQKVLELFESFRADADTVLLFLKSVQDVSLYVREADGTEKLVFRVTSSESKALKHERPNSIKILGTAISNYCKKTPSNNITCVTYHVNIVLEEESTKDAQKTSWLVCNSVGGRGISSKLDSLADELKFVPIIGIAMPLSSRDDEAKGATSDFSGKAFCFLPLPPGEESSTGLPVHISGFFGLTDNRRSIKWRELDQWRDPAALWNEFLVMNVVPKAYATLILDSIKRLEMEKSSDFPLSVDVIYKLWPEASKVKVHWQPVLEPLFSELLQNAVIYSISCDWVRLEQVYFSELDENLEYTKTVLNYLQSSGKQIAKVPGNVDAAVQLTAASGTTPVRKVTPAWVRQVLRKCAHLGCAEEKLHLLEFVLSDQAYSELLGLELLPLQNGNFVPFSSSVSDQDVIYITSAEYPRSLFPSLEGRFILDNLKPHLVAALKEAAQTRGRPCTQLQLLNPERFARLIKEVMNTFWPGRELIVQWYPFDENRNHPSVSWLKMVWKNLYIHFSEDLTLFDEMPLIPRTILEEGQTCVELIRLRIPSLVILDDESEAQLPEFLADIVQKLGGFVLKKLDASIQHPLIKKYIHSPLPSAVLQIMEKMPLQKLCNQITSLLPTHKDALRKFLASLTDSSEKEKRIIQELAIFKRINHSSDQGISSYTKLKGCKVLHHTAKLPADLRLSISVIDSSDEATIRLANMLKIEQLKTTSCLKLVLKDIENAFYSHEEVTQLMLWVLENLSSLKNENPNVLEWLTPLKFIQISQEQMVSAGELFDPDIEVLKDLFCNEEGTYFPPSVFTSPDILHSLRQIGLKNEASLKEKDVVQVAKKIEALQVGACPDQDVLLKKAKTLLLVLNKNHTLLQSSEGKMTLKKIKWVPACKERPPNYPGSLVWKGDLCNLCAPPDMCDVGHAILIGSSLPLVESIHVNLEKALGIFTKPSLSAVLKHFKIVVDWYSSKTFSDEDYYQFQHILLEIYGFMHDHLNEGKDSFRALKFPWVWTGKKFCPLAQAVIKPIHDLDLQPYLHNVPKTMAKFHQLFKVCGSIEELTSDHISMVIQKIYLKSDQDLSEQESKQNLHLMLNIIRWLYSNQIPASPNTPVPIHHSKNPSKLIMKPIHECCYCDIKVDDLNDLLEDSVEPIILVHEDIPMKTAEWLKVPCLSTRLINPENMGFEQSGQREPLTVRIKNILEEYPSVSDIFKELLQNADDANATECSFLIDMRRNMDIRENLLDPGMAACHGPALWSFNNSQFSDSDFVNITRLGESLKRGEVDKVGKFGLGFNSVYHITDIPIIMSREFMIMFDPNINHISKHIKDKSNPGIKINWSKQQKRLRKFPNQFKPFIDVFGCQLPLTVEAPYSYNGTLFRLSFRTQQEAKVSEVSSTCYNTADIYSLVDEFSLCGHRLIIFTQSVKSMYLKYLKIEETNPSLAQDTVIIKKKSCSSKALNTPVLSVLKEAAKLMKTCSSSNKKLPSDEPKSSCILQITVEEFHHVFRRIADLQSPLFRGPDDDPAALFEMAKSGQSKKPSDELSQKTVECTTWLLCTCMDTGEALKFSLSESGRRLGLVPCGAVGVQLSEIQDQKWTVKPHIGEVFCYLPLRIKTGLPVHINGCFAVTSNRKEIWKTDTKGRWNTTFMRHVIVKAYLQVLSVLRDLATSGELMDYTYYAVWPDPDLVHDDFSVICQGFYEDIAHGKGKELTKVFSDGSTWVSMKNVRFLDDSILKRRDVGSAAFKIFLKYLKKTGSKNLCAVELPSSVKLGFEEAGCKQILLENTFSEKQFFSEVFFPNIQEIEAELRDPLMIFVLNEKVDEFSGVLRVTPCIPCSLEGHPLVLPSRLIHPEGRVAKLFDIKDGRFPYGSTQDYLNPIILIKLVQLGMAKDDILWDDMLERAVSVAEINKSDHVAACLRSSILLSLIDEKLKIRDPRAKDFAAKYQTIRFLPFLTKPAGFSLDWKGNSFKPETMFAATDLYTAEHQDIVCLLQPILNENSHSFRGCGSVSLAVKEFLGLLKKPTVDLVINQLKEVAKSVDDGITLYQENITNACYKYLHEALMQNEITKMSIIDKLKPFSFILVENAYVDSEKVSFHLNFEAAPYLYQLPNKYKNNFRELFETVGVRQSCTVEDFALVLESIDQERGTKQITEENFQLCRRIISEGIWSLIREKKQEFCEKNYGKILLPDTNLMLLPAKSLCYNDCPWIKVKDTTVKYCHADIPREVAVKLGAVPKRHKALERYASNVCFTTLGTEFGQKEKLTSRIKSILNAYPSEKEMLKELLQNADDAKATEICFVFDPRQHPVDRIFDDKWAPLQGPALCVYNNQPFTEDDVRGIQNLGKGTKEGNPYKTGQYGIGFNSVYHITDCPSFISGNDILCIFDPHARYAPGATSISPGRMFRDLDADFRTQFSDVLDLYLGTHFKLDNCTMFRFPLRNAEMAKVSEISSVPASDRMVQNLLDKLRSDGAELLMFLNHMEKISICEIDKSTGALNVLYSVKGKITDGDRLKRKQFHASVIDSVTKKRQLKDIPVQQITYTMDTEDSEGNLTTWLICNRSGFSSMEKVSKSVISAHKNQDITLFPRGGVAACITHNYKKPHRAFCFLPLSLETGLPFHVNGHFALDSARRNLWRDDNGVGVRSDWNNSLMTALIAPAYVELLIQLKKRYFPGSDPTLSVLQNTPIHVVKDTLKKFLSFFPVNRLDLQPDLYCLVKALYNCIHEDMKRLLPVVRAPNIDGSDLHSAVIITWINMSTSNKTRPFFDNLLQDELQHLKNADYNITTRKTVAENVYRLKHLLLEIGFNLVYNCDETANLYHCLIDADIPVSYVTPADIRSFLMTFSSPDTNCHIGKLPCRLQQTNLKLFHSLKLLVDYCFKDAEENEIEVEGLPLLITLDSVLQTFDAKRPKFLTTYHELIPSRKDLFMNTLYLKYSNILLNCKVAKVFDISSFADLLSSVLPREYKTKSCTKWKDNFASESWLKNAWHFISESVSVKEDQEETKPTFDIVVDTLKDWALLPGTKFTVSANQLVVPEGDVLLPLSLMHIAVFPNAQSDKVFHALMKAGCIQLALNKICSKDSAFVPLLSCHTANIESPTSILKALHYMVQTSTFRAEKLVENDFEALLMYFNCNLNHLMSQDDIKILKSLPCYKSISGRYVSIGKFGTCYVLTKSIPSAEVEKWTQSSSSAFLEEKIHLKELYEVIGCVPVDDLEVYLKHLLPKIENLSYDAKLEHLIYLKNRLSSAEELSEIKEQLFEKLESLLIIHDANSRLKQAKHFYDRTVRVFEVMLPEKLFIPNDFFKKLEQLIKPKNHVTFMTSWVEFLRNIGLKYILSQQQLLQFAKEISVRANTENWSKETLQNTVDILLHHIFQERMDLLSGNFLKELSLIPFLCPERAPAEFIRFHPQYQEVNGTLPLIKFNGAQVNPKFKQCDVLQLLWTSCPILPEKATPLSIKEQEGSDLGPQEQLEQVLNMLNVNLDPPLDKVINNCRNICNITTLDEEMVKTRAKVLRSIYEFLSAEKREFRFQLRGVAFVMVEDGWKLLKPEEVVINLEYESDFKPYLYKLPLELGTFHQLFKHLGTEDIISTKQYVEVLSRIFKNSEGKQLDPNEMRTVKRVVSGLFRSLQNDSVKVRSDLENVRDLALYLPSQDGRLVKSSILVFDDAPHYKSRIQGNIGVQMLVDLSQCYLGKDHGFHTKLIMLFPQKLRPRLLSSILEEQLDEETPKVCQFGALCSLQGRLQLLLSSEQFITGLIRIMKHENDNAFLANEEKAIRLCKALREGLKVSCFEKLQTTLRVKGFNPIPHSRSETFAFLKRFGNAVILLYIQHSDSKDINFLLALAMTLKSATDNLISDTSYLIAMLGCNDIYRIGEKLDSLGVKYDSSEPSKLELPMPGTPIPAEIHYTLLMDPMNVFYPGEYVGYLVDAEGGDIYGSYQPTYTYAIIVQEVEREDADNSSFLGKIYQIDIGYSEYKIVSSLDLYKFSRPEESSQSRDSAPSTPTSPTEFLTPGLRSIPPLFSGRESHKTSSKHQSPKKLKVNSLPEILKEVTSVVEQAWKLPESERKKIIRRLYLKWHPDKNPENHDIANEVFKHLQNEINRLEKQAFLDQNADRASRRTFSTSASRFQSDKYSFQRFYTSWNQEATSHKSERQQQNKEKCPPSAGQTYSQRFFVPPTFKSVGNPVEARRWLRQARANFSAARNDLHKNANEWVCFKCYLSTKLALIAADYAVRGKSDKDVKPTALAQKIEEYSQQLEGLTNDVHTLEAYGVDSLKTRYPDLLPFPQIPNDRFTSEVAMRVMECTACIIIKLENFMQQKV

Results are given in words; binding and its absence hold for the method and conditions named. In cells and extracts the contact can be indirect. A yes stands for co-enrichment or nearness to the bait. Other partners may have been found. Tags and fused reporters may be left off the sequences shown.

The target of this test is T1, GFP-SNX21 (N-terminal GFP-tagged full-length human sorting nexin-21) (human) (UniProt Q969T3).
T1 sequence: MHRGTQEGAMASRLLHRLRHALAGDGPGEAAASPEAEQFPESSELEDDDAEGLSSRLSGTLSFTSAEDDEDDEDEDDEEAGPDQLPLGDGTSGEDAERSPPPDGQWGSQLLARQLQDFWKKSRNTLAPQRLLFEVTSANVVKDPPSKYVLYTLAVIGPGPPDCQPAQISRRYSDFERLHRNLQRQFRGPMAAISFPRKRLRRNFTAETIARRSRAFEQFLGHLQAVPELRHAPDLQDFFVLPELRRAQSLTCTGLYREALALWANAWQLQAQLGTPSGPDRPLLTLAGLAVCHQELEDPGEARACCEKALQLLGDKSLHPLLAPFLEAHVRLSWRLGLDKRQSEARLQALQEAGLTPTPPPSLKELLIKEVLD
The test can be described thus: affinity purification with mass spectrometry; SILAC: GFP-nanotrap precipitation of GFP-SNX21 (R6K4) against GFP (R0K0) from virally transduced RPE1 cells, 1 h at 4°C, 50 mM Tris-HCl pH 7.4, 0.5% NP40; precipitates pooled, SDS-PAGE, LC-MS/MS.
On to “huntingtin (Htt), endogenous (from UniProt P42858 1-3142)”, for which the binding result is recorded as “binds”.
Take “sacsin, endogenous (from UniProt Q9NZJ4 1-4579)”: the binding result was “binds”.
As for B1, the binding entry is reported as “binds”.
In the case of B2 it was “binds”; in that of B3, “binds”.
With B4, the binding result is recorded as “binds”.
In the case of B5 it was “binds”; in that of B6, “binds”.

Source of the values: publication PMC6140323.
